Measured values published in US10323018B2 (Millennium Pharmaceuticals, Inc., priority 2015, dated 2019).
Structures were worked out from names or drawings and are uncertain.

By UniProt entry, the sequences of proteins in these tests, tags left out.
UniProt P43490, whole entry: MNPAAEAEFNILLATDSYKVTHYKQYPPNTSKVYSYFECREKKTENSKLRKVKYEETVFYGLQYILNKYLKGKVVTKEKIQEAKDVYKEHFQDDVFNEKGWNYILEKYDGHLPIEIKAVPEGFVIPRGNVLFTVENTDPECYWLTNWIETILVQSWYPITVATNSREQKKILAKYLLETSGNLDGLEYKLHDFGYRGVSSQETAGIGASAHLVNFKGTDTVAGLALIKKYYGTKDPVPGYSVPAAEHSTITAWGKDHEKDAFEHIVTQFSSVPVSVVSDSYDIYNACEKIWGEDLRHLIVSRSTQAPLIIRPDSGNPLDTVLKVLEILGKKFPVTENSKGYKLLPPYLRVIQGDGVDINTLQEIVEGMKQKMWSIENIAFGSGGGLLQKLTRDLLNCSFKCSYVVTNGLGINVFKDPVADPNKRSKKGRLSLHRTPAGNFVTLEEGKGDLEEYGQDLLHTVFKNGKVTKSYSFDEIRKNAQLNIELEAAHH

How the values were obtained:
hNAMPT protein = hNAMPT protein (Homo sapiens (Human), UniProt P43490); experiment: NAMPT enzyme assay (TR-FRET/HTRF with BodiPY ligand); conditions: for Percent Inhibition: NAMPT inhibition at compound concentration 1 μM; for IC50: NAMPT inhibition, IC50 range class
From the text: As discussed above, the invention provides compounds that are useful as inhibitors of the enzyme NAMPT. The NAMPT inhibition of a compound of the invention can be measured using a variety of methods known in the art. For example, the ability of a compound of the invention to inhibit NAMPT enzyme activity can be measured using a homogeneous time resolved fluorescence (HTRF) assay using hNAMPT protein and anti 6His-Tb in buffer treated with a compound of the invention (or control e.g., DMSO) and BodiPY ligand. The TR-FRET signal can be measured using a high throughput microplate reader (e.g., Pherastar). Excitation can be carried out at 320 nm. The percent inhibition value at a single concentration of compound of the invention can be calculated relative to a control treated sample. A concentration response curve can be generated for each compound of the invention and the curve fitted to generate an IC50 value.
To measure the inhibition of NAMPT activity hNAMPT protein stock and anti 6His-Tb (Cisbio; Cat. No. 61HISTLB) is diluted to 3× final concentration with assay buffer (50 mM Tris-HCl (pH 7.5), 1 mM DTT, 100 mM NaCl, 10 mM MgCl2, 0.005% Tween 20). To this solution is added a test compound or vehicle control (DMSO) and BodiPY ligand (structure below). The plate is shaken for 1-2 min sealed and incubated for 1 h at rt in the dark. The TR-FRET signal is measured using BMG Pherastar (Lanthascreen protocol on BMG Pherastar). Excitation was carried out at 320 nm, and the ratio of emission of BodiPY (520 nm) to terbium (486 nm) was determined. Concentration response curves are generated by calculating the excitation increase in test compound-treated samples relative to DMSO-treated controls.
For the assay method described above, test compound percent inhibition values at a single concentration are calculated relative to control (DMSO) treated samples. Compound concentration response curves are fitted to generate IC50 values from those curves. One skilled in the art will appreciate that these values generated either as percentage inhibition at a single concentration or IC50 values are subject to experimental variation.

PC3 cells = experiment: PC3 growth inhibition (Cell-titer glo, 72 hours); format: cell-based; conditions: compound concentration 1.667 μM
Procedure: The invention also provides compounds that inhibit cell growth. The ability of a compound of the invention to inhibit the growth of cells can be measured using a variety of methods known in the art. For example, the ability of a compound of the invention to inhibit the growth of PC3 cells can be measured. PC3 cells can be plated and incubated overnight under CO2. For each measurement, a compound of the invention (or vehicle e.g., DMSO) can be diluted with AIM serum free medium and added to the cell plate. The cell plate can then be incubated for 72 h under CO2. Cell-titer glo solution can be added and the plates can be incubated protected from light and the amount of luminescences can be measured. Concentration response curves can be generated by calculating the luminescence increase in test compound treated samples relative to DMSO-treated controls. Percentage remaining viability values at a single concentration can be measured. Growth inhibition (GI50) or cell viability (LD50) values can be determined from thoses curves. […]
To measure PC3 growth inhibition, PC3 cells that were maintained in RPMI1640 growth medium (Life Technologies; Cat. No. 11875) at 37° C. under 5% CO2 are trypsinized and diluted at a density of 8×10^4 cells/ml, 25 ul per well of cells and plated in 384-well black tissue culture plate. […] The luminescence is measured. […]

Structure (SMILES)	Percent Inhibition (hNAMPT protein)	IC50 (hNAMPT protein)	Percent Viability (PC3 cells)
CCOc1cc(-c2cccnc2OC)nc2cc(C(=O)NCCCc3nnc[nH]3)ccc12	95%	10 to 50 nM	1%
CCOc1cc(-c2ccc(F)cc2)nc2cc(C(=O)NCCCc3nnn[nH]3)ccc12	85%	> 100 nM	3%
